The list shows a part of the results. Residues, ends and D or L forms follow the SMILES beside them. *: point of attachment. Cbz = O=C(OCc1ccccc1)*
Tests used:
Assay in all cases: log2 fold change, soluble protein after heating vs DMSO (PISA); higher = thermal stabilisation; K562 cells, 10 uM, 30 min; active = over 0.2 and 3.5 SD of the protein, either way, in both replicates (recomputed)
IRAK-1-4 Inhibitor I = compound: C1COCCN1CCN2C3=CC=CC=C3N=C2NC(=O)C4=CC(=CC=C4)[N+](=O)[O-] [IRAK-1-4 Inhibitor I]
Summary of the method: (§1)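 Thermal stability values are relative to control samples and come from duplicates. They are expressed as log2 fold changes. For measurement, K562 cells (2×10^6 cells/mL) received 10 μM compound for 30 min, and aliquots were heated for 3 min over 48°C-58°C, pooled, and extracted at 4°C in PBS with 0.5% NP-40. Soluble protein, the supernatant after 21,000xg for 90 min, was quantified by TMTpro 16plex LC-MS/MS with equalised channel sums.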

Amino acid sequences for entries named in this document (tags omitted). A change or cut given only in a name is not applied to a line headed by its entry.
UniProt O00287: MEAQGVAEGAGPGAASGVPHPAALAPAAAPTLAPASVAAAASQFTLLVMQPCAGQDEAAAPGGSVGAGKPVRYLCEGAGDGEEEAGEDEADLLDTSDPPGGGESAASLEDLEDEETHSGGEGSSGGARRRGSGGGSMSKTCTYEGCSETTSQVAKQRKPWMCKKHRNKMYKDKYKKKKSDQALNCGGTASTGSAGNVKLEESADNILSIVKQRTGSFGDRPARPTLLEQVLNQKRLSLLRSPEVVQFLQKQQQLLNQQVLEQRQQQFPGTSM
UniProt Q9BV68: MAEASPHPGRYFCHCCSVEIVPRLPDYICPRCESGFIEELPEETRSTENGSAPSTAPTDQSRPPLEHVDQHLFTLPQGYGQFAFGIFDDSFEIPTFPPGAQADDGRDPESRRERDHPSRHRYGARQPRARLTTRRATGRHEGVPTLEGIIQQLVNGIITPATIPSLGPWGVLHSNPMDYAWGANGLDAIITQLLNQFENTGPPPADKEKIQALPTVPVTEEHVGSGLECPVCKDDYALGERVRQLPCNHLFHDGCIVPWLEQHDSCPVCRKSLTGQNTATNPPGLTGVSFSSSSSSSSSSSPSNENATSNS
UniProt Q96AA3: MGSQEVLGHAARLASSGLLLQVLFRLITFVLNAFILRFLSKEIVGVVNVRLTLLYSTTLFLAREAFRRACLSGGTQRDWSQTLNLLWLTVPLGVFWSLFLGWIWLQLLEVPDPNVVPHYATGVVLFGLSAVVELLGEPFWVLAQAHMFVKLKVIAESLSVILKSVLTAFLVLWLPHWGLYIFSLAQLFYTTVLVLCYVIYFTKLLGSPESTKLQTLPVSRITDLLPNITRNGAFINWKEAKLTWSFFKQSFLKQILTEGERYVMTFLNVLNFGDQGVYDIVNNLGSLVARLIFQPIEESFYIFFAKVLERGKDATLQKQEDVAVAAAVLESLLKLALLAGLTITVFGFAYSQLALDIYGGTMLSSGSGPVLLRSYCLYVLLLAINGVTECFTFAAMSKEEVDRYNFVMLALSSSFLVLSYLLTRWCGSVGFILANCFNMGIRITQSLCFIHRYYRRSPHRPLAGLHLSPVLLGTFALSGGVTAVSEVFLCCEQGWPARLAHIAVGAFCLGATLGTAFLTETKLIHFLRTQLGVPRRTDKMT
UniProt Q6NUM9: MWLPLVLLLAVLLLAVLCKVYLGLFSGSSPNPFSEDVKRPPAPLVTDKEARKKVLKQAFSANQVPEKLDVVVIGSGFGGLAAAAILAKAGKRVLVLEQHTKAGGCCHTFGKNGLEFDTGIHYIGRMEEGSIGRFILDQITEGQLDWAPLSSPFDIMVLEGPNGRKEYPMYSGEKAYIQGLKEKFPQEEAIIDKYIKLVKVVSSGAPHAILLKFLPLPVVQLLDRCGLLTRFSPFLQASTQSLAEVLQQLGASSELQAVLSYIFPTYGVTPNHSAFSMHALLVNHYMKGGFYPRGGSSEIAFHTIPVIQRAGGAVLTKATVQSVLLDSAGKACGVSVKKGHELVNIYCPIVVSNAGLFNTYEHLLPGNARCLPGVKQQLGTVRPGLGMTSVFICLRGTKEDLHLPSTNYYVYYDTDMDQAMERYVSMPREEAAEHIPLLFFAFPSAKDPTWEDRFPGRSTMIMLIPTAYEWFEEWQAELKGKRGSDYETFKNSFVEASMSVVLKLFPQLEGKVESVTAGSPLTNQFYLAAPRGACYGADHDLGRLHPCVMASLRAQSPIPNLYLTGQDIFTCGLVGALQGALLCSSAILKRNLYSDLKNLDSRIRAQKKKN
UniProt Q5TBB1: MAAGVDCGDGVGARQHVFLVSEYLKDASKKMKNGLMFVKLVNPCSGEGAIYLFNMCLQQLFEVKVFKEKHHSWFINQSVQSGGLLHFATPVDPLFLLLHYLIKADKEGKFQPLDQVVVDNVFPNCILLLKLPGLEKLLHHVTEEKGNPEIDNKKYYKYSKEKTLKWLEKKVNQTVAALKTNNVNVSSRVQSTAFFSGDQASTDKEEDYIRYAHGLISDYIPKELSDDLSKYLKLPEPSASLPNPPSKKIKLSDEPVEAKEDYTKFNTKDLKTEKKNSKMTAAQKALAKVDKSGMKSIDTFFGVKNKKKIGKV
UniProt Q06587: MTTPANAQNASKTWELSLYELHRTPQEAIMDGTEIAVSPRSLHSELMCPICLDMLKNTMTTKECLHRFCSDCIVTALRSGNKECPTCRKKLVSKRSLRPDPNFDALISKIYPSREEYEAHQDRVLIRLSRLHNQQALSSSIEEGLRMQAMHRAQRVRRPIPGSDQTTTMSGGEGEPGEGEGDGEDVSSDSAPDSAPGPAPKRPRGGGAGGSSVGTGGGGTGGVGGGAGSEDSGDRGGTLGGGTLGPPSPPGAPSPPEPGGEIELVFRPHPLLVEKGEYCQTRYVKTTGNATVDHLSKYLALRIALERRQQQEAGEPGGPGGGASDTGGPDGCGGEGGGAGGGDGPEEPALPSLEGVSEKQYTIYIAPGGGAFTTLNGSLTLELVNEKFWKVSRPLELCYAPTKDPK
UniProt Q04206, whole entry, looked up: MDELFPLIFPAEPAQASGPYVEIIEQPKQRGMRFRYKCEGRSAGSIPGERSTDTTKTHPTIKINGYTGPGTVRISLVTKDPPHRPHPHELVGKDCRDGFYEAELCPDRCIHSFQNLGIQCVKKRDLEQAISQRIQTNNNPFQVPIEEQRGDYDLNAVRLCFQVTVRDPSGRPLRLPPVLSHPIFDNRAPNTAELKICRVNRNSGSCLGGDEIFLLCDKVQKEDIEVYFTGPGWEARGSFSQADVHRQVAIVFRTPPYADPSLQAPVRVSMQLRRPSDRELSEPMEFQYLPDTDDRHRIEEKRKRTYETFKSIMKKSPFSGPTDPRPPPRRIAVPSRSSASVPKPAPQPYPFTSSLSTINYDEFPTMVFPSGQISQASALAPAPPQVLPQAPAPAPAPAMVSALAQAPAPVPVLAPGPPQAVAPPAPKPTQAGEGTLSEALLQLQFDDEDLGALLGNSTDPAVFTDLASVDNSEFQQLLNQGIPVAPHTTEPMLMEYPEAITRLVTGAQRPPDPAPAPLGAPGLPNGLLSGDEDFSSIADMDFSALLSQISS
UniProt P62745, whole entry, looked up: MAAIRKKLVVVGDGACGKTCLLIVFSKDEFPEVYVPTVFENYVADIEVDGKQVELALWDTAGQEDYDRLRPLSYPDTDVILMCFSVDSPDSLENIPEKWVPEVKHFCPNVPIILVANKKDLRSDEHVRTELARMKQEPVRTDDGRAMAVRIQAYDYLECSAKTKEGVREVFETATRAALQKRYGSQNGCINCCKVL
UniProt P08134, whole entry, looked up: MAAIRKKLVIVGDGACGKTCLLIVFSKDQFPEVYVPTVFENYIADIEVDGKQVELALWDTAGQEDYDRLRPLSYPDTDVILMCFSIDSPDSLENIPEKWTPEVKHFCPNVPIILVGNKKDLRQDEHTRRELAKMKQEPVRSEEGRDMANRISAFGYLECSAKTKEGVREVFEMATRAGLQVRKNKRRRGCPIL
UniProt P46063: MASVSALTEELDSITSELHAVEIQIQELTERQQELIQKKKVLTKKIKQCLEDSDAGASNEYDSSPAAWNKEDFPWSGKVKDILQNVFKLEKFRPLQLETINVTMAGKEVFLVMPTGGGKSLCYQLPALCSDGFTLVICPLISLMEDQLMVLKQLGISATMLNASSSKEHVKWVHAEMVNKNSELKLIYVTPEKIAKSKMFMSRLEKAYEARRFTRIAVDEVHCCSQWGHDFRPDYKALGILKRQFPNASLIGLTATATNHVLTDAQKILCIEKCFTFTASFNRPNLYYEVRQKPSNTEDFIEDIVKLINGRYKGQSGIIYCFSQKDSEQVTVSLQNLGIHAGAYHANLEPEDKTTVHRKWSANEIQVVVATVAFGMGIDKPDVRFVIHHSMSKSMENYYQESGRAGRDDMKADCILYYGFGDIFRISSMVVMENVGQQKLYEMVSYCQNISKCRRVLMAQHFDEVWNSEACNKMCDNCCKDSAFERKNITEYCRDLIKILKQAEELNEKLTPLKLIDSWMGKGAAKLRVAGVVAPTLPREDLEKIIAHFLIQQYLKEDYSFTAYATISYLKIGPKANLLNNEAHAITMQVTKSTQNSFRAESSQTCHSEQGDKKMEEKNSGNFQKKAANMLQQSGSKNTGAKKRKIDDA
UniProt Q8NBN7: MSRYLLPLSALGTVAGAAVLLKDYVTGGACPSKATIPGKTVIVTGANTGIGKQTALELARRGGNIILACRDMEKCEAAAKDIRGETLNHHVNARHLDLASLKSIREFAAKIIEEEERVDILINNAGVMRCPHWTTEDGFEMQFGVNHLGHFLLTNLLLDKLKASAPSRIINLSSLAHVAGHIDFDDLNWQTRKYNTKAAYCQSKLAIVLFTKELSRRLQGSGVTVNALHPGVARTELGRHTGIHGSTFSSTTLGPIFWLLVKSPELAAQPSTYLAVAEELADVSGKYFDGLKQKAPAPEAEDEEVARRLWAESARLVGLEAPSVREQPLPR
UniProt Q9H0Z9: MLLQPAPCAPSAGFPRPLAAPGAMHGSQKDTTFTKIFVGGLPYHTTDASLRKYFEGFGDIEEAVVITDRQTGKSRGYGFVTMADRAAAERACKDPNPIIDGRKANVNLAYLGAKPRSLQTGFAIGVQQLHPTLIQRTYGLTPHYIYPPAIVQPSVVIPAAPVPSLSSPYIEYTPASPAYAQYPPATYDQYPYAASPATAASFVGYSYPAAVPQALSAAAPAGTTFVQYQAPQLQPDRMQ
UniProt O14730: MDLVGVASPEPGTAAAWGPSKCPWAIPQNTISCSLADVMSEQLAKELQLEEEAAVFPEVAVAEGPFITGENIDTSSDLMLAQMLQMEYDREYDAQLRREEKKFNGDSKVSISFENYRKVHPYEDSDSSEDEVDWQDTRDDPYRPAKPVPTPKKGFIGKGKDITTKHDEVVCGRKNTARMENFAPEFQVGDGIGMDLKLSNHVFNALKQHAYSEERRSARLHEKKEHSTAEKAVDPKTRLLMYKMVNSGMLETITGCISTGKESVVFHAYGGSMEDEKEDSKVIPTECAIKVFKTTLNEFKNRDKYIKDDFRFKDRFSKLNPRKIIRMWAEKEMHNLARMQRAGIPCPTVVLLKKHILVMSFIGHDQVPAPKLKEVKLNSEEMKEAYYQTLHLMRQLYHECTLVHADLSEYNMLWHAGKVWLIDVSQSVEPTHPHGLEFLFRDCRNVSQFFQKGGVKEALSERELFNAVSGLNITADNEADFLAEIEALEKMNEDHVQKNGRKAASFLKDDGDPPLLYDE
UniProt Q5XPI4: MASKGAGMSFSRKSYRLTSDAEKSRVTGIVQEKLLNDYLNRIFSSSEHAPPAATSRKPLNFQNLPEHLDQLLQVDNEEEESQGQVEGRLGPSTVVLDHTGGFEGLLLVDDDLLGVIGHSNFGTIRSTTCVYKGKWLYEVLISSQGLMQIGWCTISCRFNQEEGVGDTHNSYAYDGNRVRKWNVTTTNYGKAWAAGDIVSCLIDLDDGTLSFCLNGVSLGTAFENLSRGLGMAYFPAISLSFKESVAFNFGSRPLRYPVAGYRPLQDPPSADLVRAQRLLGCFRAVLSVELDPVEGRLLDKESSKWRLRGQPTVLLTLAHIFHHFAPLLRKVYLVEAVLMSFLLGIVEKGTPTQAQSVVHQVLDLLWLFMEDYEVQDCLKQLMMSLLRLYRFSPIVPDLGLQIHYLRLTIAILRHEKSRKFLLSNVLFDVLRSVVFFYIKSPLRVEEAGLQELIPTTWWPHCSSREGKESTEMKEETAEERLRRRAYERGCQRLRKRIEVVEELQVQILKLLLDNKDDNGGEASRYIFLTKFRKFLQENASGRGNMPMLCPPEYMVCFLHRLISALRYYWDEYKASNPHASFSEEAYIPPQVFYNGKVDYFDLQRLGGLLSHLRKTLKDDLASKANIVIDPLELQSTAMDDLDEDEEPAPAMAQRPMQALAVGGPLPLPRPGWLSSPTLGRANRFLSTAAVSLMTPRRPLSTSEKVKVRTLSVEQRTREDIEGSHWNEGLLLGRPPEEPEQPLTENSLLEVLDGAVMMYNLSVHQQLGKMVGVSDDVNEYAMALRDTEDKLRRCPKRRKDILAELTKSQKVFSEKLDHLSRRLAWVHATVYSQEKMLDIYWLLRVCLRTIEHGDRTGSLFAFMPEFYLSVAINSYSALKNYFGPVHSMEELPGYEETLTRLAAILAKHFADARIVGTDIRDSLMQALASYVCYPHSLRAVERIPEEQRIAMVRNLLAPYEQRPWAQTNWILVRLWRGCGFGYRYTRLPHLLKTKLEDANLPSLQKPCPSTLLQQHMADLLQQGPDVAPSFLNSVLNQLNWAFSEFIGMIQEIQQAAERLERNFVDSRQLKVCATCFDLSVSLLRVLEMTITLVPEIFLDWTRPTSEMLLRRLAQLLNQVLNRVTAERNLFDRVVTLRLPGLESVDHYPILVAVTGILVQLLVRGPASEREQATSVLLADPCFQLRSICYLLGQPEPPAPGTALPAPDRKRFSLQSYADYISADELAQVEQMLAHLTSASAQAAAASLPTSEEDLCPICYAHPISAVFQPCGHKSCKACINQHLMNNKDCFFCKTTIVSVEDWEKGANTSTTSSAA

ibrutinib = compound: C=CC(=O)N1CCC[C@@H](n2nc(-c3ccc(Oc4ccccc4)cc3)c3c(N)ncnc32)C1 [ibrutinib]
Summary of the method: as §1

[1] = compound: CC(=O)c1cnc2ccc(-c3cc(Cl)c(O)c(Cl)c3)nc2c1N[C@H]1CC[C@H](CN(C)C)CC1
Summary of the method: as §1

ralimetinib = compound: CC(C)(C)Cn1c(N)nc2ccc(-c3[nH]c(C(C)(C)C)nc3-c3ccc(F)cc3)nc21 [ralimetinib]
Summary of the method: as §1

[2] = compound: CC(C)(O)CC(=O)NCCn1ccc2ncnc(Nc3ccc(Oc4cccc(C(F)(F)F)c4)c(Cl)c3)c21
Summary of the method: as §1

[3] = compound: CC(C)C1=C2N=C(C=C(N2N=C1)NCC3=CC=CC=C3)NCCCCCCN
Summary of the method: as §1

[4] = compound: CC(C)C[C@@H](C=O)NC(=O)[C@H](CC(C)C)NC(=O)[C@H](CC(C)C)NC(=O)OCc1ccccc1
Summary of the method: as §1

pinometostat = compound: CC(C)N(C[C@H]1O[C@@H](n2cnc3c(N)ncnc32)[C@H](O)[C@@H]1O)[C@H]1C[C@@H](CCc2nc3cc(C(C)(C)C)ccc3[nH]2)C1 [pinometostat]
Summary of the method: as §1

[5] = compound: CC1=C(C(CC(=O)N1)C2=CC=C(C=C2)C(F)(F)F)C(=O)NC3=C(C=C4C(=C3)C=NN4)F
Summary of the method: as §1

[6] = compound: CC1=C(C2=C(C=C1)C(=O)C3=CC=CC=C3N2CCCN)C
Summary of the method: as §1

[7] = compound: CC1=C(C=C(C=C1)NC(=O)C2=CC(=CC=C2)C(C)(C)C#N)NC3=CC4=C(C=C3)N=CN(C4=O)C
Summary of the method: as §1

[8] = compound: CC1=C(C=C(C=C1)NC(=O)C2=CC(=CC=C2)N(C)C)NC(=O)C3=CC=C(C=C3)O
Summary of the method: as §1

[9] = compound: CC1=CC=C(C=C1)SC2=C3C=C(SC3=CN=C2)C(=O)N
Summary of the method: as §1

[10] = compound: CC1=NC(=CC=C1)C2=C(N=C(N2)C(C)(C)C)C3=CC4=NC=CN=C4C=C3
Summary of the method: as §1

Nexturastat A = compound: CCCCN(Cc1ccc(C(=O)NO)cc1)C(=O)Nc1ccccc1 [Nexturastat A]
Summary of the method: as §1

vemurafenib = compound: CCCS(=O)(=O)Nc1ccc(F)c(C(=O)c2c[nH]c3ncc(-c4ccc(Cl)cc4)cc23)c1F [vemurafenib]
Summary of the method: as §1

[11] = compound: CCCS(=O)(=O)Nc1ccc(F)c(C(=O)c2c[nH]c3ncc(Cl)cc23)c1F
Summary of the method: as §1

[12] = compound: CCCc1cc(C)[nH]c(=O)c1CNC(=O)c1cc(-c2ccnc(N3CCN(C)CC3)c2)cc2c1cnn2C(C)C
Summary of the method: as §1

givinostat = compound: CCN(CC)Cc1ccc2cc(COC(=O)Nc3ccc(C(=O)NO)cc3)ccc2c1 [givinostat]
Summary of the method: as §1

barasertib = compound: CCN(CCCOc1ccc2c(Nc3cc(CC(=O)Nc4cccc(F)c4)[nH]n3)ncnc2c1)CCOP(=O)(O)O [barasertib]
Summary of the method: as §1

Target	log2 fold change (IRAK-1-4 Inhibitor I)	log2 fold change (ibrutinib)	log2 fold change [1]	log2 fold change (ralimetinib)	log2 fold change [2]	log2 fold change [3]	log2 fold change [4]	log2 fold change (pinometostat)	log2 fold change [5]	log2 fold change [6]	log2 fold change [7]	log2 fold change [8]	log2 fold change [9]	log2 fold change [10]	log2 fold change (Nexturastat A)	log2 fold change (vemurafenib)	log2 fold change [11]	log2 fold change [12]	log2 fold change (givinostat)	log2 fold change (barasertib)
RFXAP (UniProt O00287)	inactive: 0	inactive: 0.013	inactive: -0.091	inactive: 0.007	inactive: 0.028	inactive: 0.038	inactive: 0.097	inactive: -0.005	inactive: 0.023	inactive: -0.03	inactive: -0.008	inactive: -0.023	inactive: -0.026	inactive: -0.031	inactive: 0.123	inactive: -0.076	inactive: -0.048	inactive: 0.03	inactive: 0.046	inactive: -0.019
RNF126 (UniProt Q9BV68)	inactive: 0.003	inactive: 0.055	inactive: 0.067	inactive: -0.026	inactive: 0.025	inactive: 0.046	inactive: 0.003	inactive: -0.041	inactive: 0.05	inactive: -0.037	inactive: 0.022	inactive: -0.041	inactive: 0.026	inactive: 0.059	inactive: -0.02	inactive: -0.065	inactive: 0.059	inactive: 0.017	inactive: -0.085	inactive: -0.011
RFT1 (UniProt Q96AA3)	inactive: 0.149	inactive: 0.031	inactive: 0.031	inactive: -0.049	inactive: 0.006	inactive: 0.08	inactive: -0.044	inactive: -0.042	inactive: -0.007	inactive: 0.014	inactive: 0.025	inactive: 0.04	inactive: -0.081	inactive: -0.066	inactive: -0.115	inactive: -0.03	inactive: -0.12	inactive: -0.034	inactive: -0.02	inactive: 0.029
RETSAT (UniProt Q6NUM9)	inactive: -0.09	inactive: 0.042	inactive: 0.01	inactive: 0.012	inactive: 0.178	inactive: -0.048	inactive: -0.007	inactive: -0.012		inactive: 0.059	inactive: 0.014	inactive: 0.025	inactive: 0.088	inactive: -0.037	inactive: -0.003	inactive: -0.03	inactive: -0.077	inactive: -0.091	inactive: 0.31	inactive: 0.009
RNASEH2B (UniProt Q5TBB1)	inactive: -0.027	inactive: -0.039	inactive: -0.196	inactive: -0.013	inactive: -0.217	inactive: -0.248	inactive: -0.034	inactive: -0.015	inactive: -0.075	inactive: 0.163	inactive: 0.05	inactive: -0.091	inactive: 0.041	inactive: 0.137	inactive: -0.12	inactive: 0	inactive: 0.075	inactive: -0.056	inactive: 0.16	inactive: 0.136
RING1 (UniProt Q06587)	inactive: -0.016	inactive: -0.007	inactive: -0.068	inactive: -0.017	inactive: -0.352	inactive: -0.059	inactive: 0.045	inactive: -0.002	inactive: -0.061	inactive: 0.033	inactive: 0.046	inactive: -0.14	inactive: -0.007	inactive: 0.018	inactive: -0.012	inactive: 0.205	inactive: 0.139	inactive: -0.005	inactive: 0.095	inactive: 0.049
REPIN1 isoform 4 (UniProt Q9BWE0)	inactive: 0.036	inactive: 0.057	inactive: 0.003	inactive: -0.019	inactive: -0.07	inactive: 0.021	inactive: -0.002	inactive: -0.017	inactive: 0.043	inactive: 0.061	inactive: 0.005	inactive: -0.025	inactive: -0.016	inactive: 0.021	inactive: 0.024	inactive: 0.021	inactive: 0.026	inactive: -0.097	inactive: -0.023	inactive: -0.004
RELA (UniProt Q04206)	inactive: -0.011	inactive: -0.002	inactive: 0.022	inactive: 0.025	inactive: 0	inactive: -0.018	inactive: 0.031	inactive: 0.003		inactive: -0.054	inactive: 0.013	inactive: 0	inactive: 0.016	inactive: 0.014	inactive: 0.028	inactive: 0.014	inactive: 0.067	inactive: 0.021	inactive: 0.015	inactive: 0.013
RHOB (UniProt P62745)	inactive: -0.043	inactive: 0.03	inactive: 0.185	inactive: -0.012	inactive: -0.138	inactive: 0.017	inactive: -0.136	inactive: -0.055	inactive: 0.055	inactive: -0.077	inactive: 0.004	inactive: -0.007	inactive: 0.143	inactive: 0.138	inactive: 0.249	inactive: -0.251	inactive: -0.122	inactive: -0.014	inactive: -0.23	inactive: 0.014
RHOC (UniProt P08134)	inactive: 0.054	inactive: 0.015	inactive: 0.006	inactive: -0.032	inactive: 0.039	inactive: 0.077	inactive: -0.054	inactive: -0.032	inactive: 0.013	inactive: 0.054	inactive: 0	inactive: 0.031	inactive: 0.016	inactive: -0.001	inactive: -0.042	inactive: 0	inactive: 0.01	inactive: -0.029	inactive: -0.169	inactive: -0.018
RECQL (UniProt P46063)	inactive: 0.013	inactive: 0.002	inactive: -0.023	inactive: -0.024	inactive: -0.039	inactive: -0.033	inactive: -0.02	inactive: -0.013		active: 0.266	inactive: 0.028	inactive: -0.012	inactive: 0.011	inactive: 0.039	inactive: -0.002	inactive: -0.009	inactive: 0.063	inactive: -0.007	inactive: 0.038	inactive: -0.002
RDH13 (UniProt Q8NBN7)	inactive: 0.012	inactive: 0.03	inactive: -0.054	inactive: -0.031	inactive: -0.061	inactive: -0.184	inactive: -0.029	inactive: -0.057		inactive: 0.111	inactive: 0.011	inactive: -0.082	inactive: 0.045	inactive: 0.078	inactive: -0.046	inactive: 0.044	inactive: 0.019	inactive: -0.01	inactive: -0.002	inactive: 0.033
RBM38 (UniProt Q9H0Z9)	inactive: 0.056	inactive: 0.083	inactive: -0.03	inactive: -0.052	inactive: -0.062	inactive: 0.033	inactive: 0	inactive: -0.006	inactive: 0.011	inactive: 0.172	inactive: -0.018	inactive: -0.165	inactive: 0.055	inactive: 0.037	inactive: -0.003	inactive: -0.123	inactive: -0.049	inactive: 0.004	inactive: -0.004	inactive: 0.039
RNF20 (UniProt Q5VTR2)	inactive: -0.086	inactive: -0.055	inactive: -0.016	inactive: -0.088	inactive: -0.074	inactive: -0.189	inactive: 0.096	inactive: -0.039	inactive: 0.016	inactive: -0.115	inactive: 0.065	inactive: -0.069	inactive: -0.007	inactive: 0.001	inactive: -0.07		inactive: 0.06	inactive: 0.02	inactive: -0.006	inactive: -0.021
RIOK3 (UniProt O14730)	inactive: 0.087	inactive: 0.002	inactive: 0.024	inactive: -0.009	inactive: -0.083	inactive: -0.009	inactive: 0.021	inactive: -0.011		active: -0.231	inactive: 0.026	inactive: 0.021	inactive: 0.009	inactive: 0.014	inactive: -0.094	inactive: -0.012	inactive: -0.012	inactive: 0.011	inactive: -0.003	inactive: -0.003
RNF123 isoform 2 (UniProt Q5XPI4)	inactive: -0.144	inactive: -0.014	inactive: 0.009	inactive: 0.003	inactive: -0.069	inactive: -0.122	inactive: 0.028	inactive: -0.032	inactive: -0.001	inactive: -0.023	inactive: -0.035	inactive: -0.036	inactive: 0.015	inactive: 0.175	inactive: -0.053	inactive: 0.027	inactive: -0.006	inactive: 0.011	inactive: 0.028	inactive: 0.07
RBM8A (UniProt Q9Y5S9)	inactive: -0.027	inactive: -0.017	inactive: 0.127	inactive: -0.015	inactive: -0.002	inactive: 0.128	inactive: 0.024	inactive: -0.015		inactive: 0.027	inactive: -0.025	inactive: -0.024	inactive: -0.02	inactive: 0.075	inactive: -0.069	inactive: 0.024	inactive: -0.001	inactive: 0.04	inactive: -0.032	inactive: 0.043

Individual results from the results shown.
Entry of RNF20 (UniProt Q5VTR2) under log2 fold change [7]: inactive: 0.065
Entry of RNF123 isoform 2 (UniProt Q5XPI4) under log2 fold change (ralimetinib): inactive: 0.003

Source: the supplement of paper PMC10849652
